Laboratory results taken from doi:10.1101/238709.
Results are given in words; binding and its absence hold for the method and conditions named. In cells and extracts the contact can be indirect. A yes stands for co-enrichment or nearness to the bait. Other partners may have been found.

Sequences of proteins named here, by UniProt entry; tags and fusion partners are left off.
UniProt P17676: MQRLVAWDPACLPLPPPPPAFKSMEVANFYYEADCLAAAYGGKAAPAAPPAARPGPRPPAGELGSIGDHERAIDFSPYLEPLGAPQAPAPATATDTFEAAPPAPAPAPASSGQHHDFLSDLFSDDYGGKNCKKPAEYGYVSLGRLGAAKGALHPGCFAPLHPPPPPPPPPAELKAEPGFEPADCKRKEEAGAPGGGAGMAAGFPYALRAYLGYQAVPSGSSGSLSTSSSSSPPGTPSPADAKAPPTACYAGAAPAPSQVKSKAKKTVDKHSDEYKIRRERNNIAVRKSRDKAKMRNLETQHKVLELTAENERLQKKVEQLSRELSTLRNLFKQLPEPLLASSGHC
UniProt Q9UBB5: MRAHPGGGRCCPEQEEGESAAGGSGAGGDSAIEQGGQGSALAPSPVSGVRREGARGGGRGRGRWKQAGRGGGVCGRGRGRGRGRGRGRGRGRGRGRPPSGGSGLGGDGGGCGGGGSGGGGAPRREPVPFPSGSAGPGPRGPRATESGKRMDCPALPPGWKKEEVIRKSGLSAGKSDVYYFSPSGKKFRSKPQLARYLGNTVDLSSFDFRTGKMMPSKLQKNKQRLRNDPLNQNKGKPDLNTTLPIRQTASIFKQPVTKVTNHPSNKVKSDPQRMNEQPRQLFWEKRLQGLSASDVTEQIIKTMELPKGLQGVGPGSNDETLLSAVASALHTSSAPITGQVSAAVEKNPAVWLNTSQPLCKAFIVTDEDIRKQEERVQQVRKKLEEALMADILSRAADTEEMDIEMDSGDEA
UniProt Q13547: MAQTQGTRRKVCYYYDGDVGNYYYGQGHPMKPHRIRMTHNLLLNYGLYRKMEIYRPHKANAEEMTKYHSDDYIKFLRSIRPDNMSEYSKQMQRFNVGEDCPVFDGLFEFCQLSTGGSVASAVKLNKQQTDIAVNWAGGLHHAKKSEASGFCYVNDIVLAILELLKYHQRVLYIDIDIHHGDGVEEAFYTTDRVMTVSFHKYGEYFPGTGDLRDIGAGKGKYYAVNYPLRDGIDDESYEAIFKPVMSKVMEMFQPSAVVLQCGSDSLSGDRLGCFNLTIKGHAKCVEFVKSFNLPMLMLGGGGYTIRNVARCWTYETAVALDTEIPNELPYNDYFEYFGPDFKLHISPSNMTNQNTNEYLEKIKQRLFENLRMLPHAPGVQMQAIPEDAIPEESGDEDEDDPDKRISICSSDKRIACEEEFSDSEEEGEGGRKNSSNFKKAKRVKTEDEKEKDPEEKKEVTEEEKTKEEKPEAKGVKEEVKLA
UniProt Q12873: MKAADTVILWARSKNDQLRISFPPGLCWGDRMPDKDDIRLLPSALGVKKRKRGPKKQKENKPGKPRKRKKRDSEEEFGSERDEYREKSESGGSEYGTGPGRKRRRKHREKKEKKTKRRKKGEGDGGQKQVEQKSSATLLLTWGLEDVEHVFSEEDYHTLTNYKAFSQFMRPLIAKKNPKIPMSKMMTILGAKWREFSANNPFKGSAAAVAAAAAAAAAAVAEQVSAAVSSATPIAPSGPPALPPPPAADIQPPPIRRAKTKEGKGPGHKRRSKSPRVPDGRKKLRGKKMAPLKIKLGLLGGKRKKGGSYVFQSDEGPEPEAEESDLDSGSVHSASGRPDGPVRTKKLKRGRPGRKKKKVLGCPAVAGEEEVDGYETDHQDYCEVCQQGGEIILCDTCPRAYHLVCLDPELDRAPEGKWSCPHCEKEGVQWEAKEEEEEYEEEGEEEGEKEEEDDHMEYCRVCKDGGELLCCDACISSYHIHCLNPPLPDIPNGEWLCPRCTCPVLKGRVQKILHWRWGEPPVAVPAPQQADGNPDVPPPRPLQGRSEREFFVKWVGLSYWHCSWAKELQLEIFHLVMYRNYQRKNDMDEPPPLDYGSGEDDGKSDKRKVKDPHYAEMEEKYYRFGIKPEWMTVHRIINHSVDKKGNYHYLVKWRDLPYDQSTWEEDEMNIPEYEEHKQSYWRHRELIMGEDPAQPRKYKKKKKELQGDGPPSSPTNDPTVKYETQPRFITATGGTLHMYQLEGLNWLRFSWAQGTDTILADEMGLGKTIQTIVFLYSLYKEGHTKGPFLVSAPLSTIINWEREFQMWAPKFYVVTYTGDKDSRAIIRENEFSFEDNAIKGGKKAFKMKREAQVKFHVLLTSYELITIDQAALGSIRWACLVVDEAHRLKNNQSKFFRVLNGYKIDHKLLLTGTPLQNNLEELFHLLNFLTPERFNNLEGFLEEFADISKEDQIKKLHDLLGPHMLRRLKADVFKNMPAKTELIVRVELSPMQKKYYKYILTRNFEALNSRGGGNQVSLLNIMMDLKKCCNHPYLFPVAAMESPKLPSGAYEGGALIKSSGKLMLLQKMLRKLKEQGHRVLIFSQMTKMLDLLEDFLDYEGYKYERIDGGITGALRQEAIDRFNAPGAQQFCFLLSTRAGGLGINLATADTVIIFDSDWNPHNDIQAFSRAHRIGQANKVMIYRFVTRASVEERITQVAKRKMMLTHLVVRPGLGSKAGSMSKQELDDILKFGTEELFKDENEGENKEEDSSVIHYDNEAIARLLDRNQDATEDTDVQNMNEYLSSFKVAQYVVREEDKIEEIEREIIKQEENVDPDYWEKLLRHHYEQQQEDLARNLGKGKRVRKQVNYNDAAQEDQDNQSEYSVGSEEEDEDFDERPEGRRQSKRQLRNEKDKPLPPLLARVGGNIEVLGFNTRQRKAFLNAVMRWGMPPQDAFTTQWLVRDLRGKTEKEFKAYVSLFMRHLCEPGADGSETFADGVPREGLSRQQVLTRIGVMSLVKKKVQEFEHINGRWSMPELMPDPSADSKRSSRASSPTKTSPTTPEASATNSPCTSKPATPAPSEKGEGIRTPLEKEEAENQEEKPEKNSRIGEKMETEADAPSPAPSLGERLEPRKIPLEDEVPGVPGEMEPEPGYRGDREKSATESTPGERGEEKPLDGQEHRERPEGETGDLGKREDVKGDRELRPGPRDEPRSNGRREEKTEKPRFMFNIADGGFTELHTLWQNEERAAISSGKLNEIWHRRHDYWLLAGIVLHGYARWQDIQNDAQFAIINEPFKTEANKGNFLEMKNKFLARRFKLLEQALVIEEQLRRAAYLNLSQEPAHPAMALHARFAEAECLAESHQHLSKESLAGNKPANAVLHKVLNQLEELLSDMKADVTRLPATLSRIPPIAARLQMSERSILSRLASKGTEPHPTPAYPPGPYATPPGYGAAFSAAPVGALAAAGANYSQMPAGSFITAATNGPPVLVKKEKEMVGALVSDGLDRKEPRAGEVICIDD
UniProt Q14839: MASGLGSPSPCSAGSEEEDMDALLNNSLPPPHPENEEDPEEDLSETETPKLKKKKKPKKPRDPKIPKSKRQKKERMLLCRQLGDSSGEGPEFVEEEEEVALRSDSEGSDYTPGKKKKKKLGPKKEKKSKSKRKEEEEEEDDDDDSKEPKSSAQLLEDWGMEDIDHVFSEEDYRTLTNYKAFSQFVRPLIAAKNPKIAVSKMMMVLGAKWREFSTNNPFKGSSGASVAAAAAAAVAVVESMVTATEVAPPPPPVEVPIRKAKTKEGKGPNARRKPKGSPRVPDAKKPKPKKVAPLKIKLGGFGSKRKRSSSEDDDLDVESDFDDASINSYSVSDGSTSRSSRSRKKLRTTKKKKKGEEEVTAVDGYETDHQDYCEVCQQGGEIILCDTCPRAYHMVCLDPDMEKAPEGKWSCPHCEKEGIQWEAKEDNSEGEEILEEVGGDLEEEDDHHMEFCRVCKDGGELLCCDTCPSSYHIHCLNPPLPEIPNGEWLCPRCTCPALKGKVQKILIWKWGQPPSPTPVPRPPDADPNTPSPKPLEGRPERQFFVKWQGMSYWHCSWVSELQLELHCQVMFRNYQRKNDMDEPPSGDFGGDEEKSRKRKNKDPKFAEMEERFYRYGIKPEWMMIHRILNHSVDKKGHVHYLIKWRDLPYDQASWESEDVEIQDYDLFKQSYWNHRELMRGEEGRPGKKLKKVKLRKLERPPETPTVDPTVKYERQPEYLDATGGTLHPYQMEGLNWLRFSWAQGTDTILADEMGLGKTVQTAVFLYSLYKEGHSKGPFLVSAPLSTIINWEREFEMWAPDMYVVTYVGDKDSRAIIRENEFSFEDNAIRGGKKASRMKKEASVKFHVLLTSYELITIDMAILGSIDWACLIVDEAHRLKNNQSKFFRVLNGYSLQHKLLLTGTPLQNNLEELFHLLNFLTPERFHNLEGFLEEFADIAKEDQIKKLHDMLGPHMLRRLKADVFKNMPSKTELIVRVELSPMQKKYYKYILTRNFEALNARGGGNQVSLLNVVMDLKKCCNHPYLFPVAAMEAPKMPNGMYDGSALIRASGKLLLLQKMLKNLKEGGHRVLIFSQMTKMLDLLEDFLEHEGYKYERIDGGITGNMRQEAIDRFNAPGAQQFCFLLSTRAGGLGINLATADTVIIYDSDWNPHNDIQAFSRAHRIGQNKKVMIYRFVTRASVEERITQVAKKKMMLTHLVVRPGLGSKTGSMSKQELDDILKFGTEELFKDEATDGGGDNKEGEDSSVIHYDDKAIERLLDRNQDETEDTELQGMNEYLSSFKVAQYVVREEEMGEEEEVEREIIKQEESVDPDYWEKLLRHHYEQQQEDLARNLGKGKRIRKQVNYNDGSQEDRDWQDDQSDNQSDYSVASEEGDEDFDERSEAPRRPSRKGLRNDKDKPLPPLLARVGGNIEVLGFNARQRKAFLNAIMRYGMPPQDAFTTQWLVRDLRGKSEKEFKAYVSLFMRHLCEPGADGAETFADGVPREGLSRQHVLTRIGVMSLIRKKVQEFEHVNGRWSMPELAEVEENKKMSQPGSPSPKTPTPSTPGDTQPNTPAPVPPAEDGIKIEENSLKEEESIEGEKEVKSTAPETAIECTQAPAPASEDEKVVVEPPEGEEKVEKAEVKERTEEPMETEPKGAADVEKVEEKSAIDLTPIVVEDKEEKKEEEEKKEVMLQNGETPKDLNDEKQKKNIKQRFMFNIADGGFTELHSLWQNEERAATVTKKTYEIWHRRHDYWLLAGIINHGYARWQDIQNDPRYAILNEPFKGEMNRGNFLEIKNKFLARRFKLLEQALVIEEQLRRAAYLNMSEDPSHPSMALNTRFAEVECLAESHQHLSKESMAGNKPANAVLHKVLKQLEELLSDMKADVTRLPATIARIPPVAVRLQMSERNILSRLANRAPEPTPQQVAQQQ

Biological target: full-length C/EBPβ derived from SU-DHL1 cells (human (endogenous in SU-DHL1)) (UniProt P17676)
Test: affinity purification with mass spectrometry

binding, binds:
MBD2 (endogenous) (from UniProt Q9UBB5 1-411), HDAC1 (from UniProt Q13547 1-482), CHD3 (from UniProt Q12873 1-2000), CHD4 (from UniProt Q14839 1-1912)
